By ED50 is commonly meant the midpoint of the dose-response relation.

The results in this text go back to patent publication US20150238507A1, “BENZODIAZEPINES FOR TREATING SMALL CELL LUNG CANCER” (GlaxoSmithKline LLC, priority 2012, published 2015).

Test [1] concerns target (SRC) gene expression in NCI-H526 xenograft. The conditions noted are these: single-dose PK/PD experiment.
Test [2] has the same test system. In words: animal or person. The conditions noted are these: Mus musculus, NCI-H526, read-out: ED50 (dose response of target (SRC) gene expression).

`CCNC(=O)C[C@@H]1N=C(c2ccc(Cl)cc2)c2cc(OC)ccc2-n2c(C)nnc21` [2-[(4S)-6-(4-chlorophenyl)-1-methyl-8-(methyloxy)-4H-[1,2,4]triazolo[4,3-a][1,4]benzodiazepin-4-yl]-N-ethylacetamide]: the “changes in target (SRC) gene expression” value in test [1] is “Dose-dependent changes”. Also, the ED50 in test [2] turned out to be 7.1 mg/kg.
